No constants are given. Whether binding was seen depends on the method and setting. Binding seen in cells or lysates may run through a third protein. Some binding calls cover weakened binding; strength is not graded here.

Chains of the proteins cited; added tags and fusions are not shown. Residues count along the entry.
UniProt P19022, residues 160-906: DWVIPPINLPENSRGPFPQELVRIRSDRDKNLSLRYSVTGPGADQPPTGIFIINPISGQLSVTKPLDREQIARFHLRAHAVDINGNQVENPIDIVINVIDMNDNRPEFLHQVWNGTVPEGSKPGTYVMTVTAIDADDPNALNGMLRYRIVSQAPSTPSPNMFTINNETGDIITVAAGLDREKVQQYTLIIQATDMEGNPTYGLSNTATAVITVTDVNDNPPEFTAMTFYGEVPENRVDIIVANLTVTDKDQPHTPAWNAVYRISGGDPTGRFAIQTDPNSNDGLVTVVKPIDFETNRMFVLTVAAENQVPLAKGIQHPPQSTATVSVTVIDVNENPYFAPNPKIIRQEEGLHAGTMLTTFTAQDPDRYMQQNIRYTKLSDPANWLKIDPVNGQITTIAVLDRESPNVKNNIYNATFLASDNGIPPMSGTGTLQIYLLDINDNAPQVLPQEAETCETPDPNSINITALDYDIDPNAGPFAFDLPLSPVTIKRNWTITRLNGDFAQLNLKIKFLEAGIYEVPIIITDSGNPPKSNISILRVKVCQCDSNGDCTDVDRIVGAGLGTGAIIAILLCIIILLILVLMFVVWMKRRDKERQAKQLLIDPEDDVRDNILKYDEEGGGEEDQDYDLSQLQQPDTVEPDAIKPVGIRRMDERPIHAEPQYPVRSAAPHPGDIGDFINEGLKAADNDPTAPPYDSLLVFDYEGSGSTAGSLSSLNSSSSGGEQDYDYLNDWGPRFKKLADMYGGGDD
UniProt P35222: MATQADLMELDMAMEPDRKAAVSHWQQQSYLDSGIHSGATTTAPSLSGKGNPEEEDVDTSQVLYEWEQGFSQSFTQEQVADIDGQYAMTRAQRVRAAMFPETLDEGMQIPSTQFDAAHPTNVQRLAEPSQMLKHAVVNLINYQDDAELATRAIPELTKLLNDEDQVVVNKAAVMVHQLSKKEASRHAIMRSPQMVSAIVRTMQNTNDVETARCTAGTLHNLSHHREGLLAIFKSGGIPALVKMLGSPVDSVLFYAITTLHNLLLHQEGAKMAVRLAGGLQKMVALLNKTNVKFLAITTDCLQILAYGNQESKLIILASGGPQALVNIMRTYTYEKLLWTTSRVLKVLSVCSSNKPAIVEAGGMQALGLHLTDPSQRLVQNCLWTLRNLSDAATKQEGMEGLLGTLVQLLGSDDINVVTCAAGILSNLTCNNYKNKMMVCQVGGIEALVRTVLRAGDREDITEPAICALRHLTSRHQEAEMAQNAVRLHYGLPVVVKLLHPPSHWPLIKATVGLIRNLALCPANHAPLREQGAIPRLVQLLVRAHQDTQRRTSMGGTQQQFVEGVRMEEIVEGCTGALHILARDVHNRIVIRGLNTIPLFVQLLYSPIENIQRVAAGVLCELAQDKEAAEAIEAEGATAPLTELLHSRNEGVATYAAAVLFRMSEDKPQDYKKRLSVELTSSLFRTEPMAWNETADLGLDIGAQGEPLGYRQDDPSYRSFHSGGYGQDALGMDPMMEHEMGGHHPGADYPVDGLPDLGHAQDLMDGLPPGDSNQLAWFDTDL

For this experiment, the target named is N-cadherin (human (endogenous in primary CLL cells)) (UniProt P19022). In words: co-IP; N-cadherin (Fig. 5b) or β-catenin immunoprecipitated from CLL lysates derived from mono-cultures or from co-cultures with EL08-1D2 cells; endogenous proteins.

Turning to β-catenin (from UniProt P35222 1-781), the binding entry is reported as “binds”.

The values above are taken from paper PMC6155045.
